Test results from patent publication US20240277684A1, “BLOCKADE OF CHEMOKINE (C-C MOTIF) RECEPTOR 2 DURING FLUID RESUSCITATION” (University of South Florida, priority 2022, published 2024).

Legend:
hemorrhagic shock [1] = test: Example 2 Series 2: 60 min hemorrhagic shock, single dose, fluid resuscitation until t=300 min; format: in vivo, rat; details: 1.1 μmol/kg SB328437 or 5 μmol/kg INCB3284 at t=60 min, vs vehicle
Protocol: The hemorrhagic shock models were performed as described previously, with slight modifications (DeSantis A J, et al., The Chemokine (C-C Motif) Receptor 2 Antagonist INCB3284 Reduces Fluid Requirements and Protects From Hemodynamic Decompensation During Resuscitation From Hemorrhagic Shock. Crit Care Explor 2022;4(5):e0701; Bach H H, et al., Chemokine (C-X-C motif) receptor 4 and atypical chemokine receptor 3 regulate vascular alpha(1)-adrenergic receptor function. Mol Med 2014; 20:435-47; Nassoiy S P, et al., Effects of the Kv7 voltage activated potassium channel inhibitor linopirdine in rat models of hemorrhagic shock. Clin Exp Pharmacol Physiol 2018. doi: 10.1111/1440-1681.12958. […] Hemodynamics were continuously monitored with the Surgivet invasive blood pressure monitor (Med-Electronics, Beltsville, MD, USA). Blood pressures were recorded at 1-5 min intervals during the hemorrhage and resuscitation periods. […] In all experiments animals were continuously monitored and remained under general anesthesia until euthanasia or death, as defined by asystole or loss of pulse pressure. […]
Arterial blood gases and routine laboratory parameters. Arterial blood gases, electrolytes, creatinine, lactate, hematocrit and hemoglobin were analyzed using the Element point of care veterinary blood gas, electrolyte and critical care analyzer (Cuattro Veterinary USA, Loveland, CO, USA).

hemorrhagic shock [2] = test: Example 1 second series: 30 min hemorrhagic shock, fluid resuscitation until t=300 min; format: in vivo, rat
Protocol: In vivo animal experiments. All procedures were performed in accordance with the National Institutes of Health Guidelines for Use of Laboratory Animals and were approved by the University of South Florida Institutional Animal Care and Use Committeee (IS00008139). Male Sprague-Dawley rats (300-400 g, Envigo, Indianapolis, IN, USA). were anesthetized with 1.7% isoflurane via nose-cone inhalation with the SomnoSuite anesthesia system (Kent Scientific, Torrington, CT, USA). […] The left femoral artery was isolated and cannulated with a 24-gauge peripheral intravenous catheter to allow for blood withdrawal, hemodynamic monitoring, drug administration, and fluid resuscitation. Hemodynamics were continuously monitored with the SurgivetV6400 blood pressure monitor (Med-Electronics, Beltsville, MD, USA), and blood pressures and heart rate were recorded at 1-10 min intervals. All animals were observed over a 10 min period to ensure hemodynamic stability before start of the experiments. All experiments were performed randomized in alternating order.
To test the effects of INCB3284 and Maraviroc after HS, a Wiggers fixed pressure hemorrhage and fluid resuscitation model was used as described (Babu F S, et al., Chemokine (C-X-C motif) receptor 4 regulates lung endothelial barrier permeability during resuscitation from hemorrhagic shock. Physiol Res 2019; 68(4):675-679; Nassoiy S P, et al., Effects of the Kv7 voltage-activated potassium channel inhibitor linopirdine in rat models of haemorrhagic shock. Clin Exp Pharmacol Physiol 2018; Nassoiy S P, et al., Kv7 voltage-activated potassium channel inhibitors reduce fluid resuscitation requirements after hemorrhagic shock in rats. J Biomed Sci 2017; 24(1):8; Bach H Ht, et al., Proteasome inhibition prolongs survival during lethal hemorrhagic shock in rats. […]
Arterial blood gases and routine laboratory parameters. Arterial blood gases, electrolytes, creatinine, lactate, hematocrit and hemoglobin were analyzed using the Element point of care veterinary blood gas, electrolyte and critical care analyzer (Cuattro Veterinary USA, Loveland, CO, USA). […]

Row | Structure (SMILES) | Hematocrit values, blood gases and lactate concentrations (hemorrhagic shock [1]) | Lactate concentrations after the HS period (hemorrhagic shock [2]; 5 μmol/kg) | Hematocrit values (hemorrhagic shock [2]; 5 μmol/kg vs vehicle) | Partial pressures of O2/CO2 in arterial blood and creatinine concentrations (hemorrhagic shock [2]; 5 μmol/kg vs vehicle)
1 | COc1ccc([C@]2(O)CC[C@@H](N3CC[C@@H](NC(=O)CNC(=O)c4cccc(C(F)(F)F)c4)C3)CC2)cn1 [INCB3284] | comparable among the groups | partially normalized | indistinguishable between groups | indistinguishable between groups
2 | COC(=O)[C@H](Cc1ccc([N+](=O)[O-])cc1)NC(=O)c1cccc2ccccc12 [SB328437] | comparable among the groups |  |  | 
